Assay results taken from US8034572B2, “Receptor for GDNF family ligands” (priority 2006, dated 2011).
Some entries share one result that the patent states for a list of compounds. Some ranges recur; such a range may be that of the whole group of compounds.

By UniProt entry, the sequences of proteins in these tests, tags left out. Residues count along the entry.
UniProt P33671, 45-387 limits assumed: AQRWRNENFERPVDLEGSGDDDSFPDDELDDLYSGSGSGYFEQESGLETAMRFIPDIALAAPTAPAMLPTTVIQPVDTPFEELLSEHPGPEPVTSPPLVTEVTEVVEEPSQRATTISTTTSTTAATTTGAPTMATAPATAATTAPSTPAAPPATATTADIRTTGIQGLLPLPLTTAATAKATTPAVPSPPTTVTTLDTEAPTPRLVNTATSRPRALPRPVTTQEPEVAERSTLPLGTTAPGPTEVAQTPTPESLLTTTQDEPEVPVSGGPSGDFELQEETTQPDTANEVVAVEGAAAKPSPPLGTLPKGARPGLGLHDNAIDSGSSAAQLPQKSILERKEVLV

B1: GDNF: Glial cell line-derived neurotrophic factor, secreted growth factor, GDNF family ligand (protein)
chain: SPDKQMAVLPRRERNRQAAAANPENSRGKGRRGQRGKNRGCVLTAIHLNVTDLGLGYETKEELIFRYCSGSCDAAETTYDKILKNLSRNRRLVSDKVGQACCRPIAFDDDLSFLDDNLVYHILRKHSAKRCGCI
B2: NRTN: neurturin, secreted growth factor, GDNF family ligand (protein)
chain: ARLGARPCGLRELEVRVSELGLGYASDETVLFRYCAGACEAAARVYDLGLRRLRQRRRLRRERVRAQPCCRPTAYEDEVSFLDAHSRYHTVHELSARECACV

How the values were obtained:
[1] = SPR (IAsys): heparin interaction with GFLs cuvette; type: binding; settings: dynamics and equilibrium response, read-out: dissociation constant for heparin
Method: (§1) The affinities of GFLs for heparin and heparin-like molecules (e.g. syndecan-3) were determined by plasmon surface resonance using the IAsys system (Affinity Sensors, Cambridge, UK). Planar aminosilane cuvettes (Affinity Sensors) were used for protein coupling to avoid problems with mass transport, which occur frequently with matrix surfaces. In the initial approach, heparin-BSA was immobilized to the cuvette surface using the manufacturer's instructions and different ligand concentrations were used to determine association (ka) and dissociation (kdis) rates using the IAsys Fastfit software. The dissociation constant Kd was determined from the binding dynamics as […], or from equilibrium response (R) using a simple Langmuir fit: R=(Rmax*C)/(Kd+C), where C is the ligand concentration. […] The dissociation constants were determined from binding dynamics and equilibrium response. The same cuvettes were used to test binding of heparan sulfate proteoglycan syndecan-3, which was purified as an ectodomain from early postnatal rat brains by HB-GAM affinity chromatography (Raulo et al., 1994).
(§2) Binding was analyzed using IAsys cuvettes with immobilized heparin-BSA or GFLs. The dissociation constant Kd was determined from dynamics of association and dissociation (Kd=kdis/ka), or from equilibrium response R (R=(Rmax*C)/(Kd+C), where C is ligand concentration).

syndecan-3 ectodomain = molecular target: T1, syndecan-3 ectodomain (Rattus norvegicus, UniProt P33671); experiment: SPR (IAsys): syndecan-3 ectodomain interaction with GFLs cuvette; type: binding; settings: immobilized GFLs, extracellular domain of syndecan-3 from rat brain, read-out: dissociation constant for syndecan-3
T1 construct: purified as an ectodomain from early postnatal rat brains; from tissue; host or cells: early postnatal rat brain
Method: as §1, §2

| Molecule | Kd [1] [nM] | Kd (syndecan-3 ectodomain) [nM] |
| --- | --- | --- |
| ARTN: artemin, secreted growth factor, GDNF family ligand | 10 to 50 | 10 to 50 |
| B1 | 10 to 50 | 10 to 50 |
| B2 | 10 to 50 | 10 to 50 |
